In US9103790B2, “Linker for unimolecular FRET biosensor based on principle of fluorescence resonance energy transfer” (KYOTO UNIVERSITY, priority 2010, dated 2015):

Test system: Akt
Assay: Eevee-Akt FRET/CFP fluorescence ratio at the basal state in COS7 cells
Assay type: cell-based, monkey
Settings: compared with 72-Gly linker

B1: EV116: EV linker polypeptide, SEQ ID NO: 18 (protein)
chain: SAGGSAGGSAGGSAGGSAGGSGSAGGSAGGSTSAGGSAGGSAGGSAGGSAGGSGSAGGSAGGSTSAGGSAGGSAGGSAGGSAGGSGSAGGSAGGSTSAGGSAGGSAGGSAGGSAGG
modifications: A 116 amino acid linker
Q: What does the source list for B1?
A: FRET at the basal state (FRET/CFP fluorescence ratio): lower FRET at the basal state; FRET at the basal state (FRET/CFP fluorescence ratio) (listed as 116 a.a. EV linker): significantly reduces the basal state
